{"source": "patent US9365551B2", "about": "“2-(benzyloxy) benzamides as LRRK2 kinase inhibitors” (Glaxo Group Limited, priority 2010, dated 2016)", "biological_target": "T1, 6His-Tev-LRRK2 (1326-2527) (Homo sapiens, UniProt Q5S007)", "T1 construct": "A LRRK2 cDNA encoding residues 1326-2527 was received from Dundee University; made in house; host or cells: Spodoptera frugiperda (Sf9) insect cells, baculovirus (pFB-HTb)", "T1 sequence (Q5S007 1326-2527)": "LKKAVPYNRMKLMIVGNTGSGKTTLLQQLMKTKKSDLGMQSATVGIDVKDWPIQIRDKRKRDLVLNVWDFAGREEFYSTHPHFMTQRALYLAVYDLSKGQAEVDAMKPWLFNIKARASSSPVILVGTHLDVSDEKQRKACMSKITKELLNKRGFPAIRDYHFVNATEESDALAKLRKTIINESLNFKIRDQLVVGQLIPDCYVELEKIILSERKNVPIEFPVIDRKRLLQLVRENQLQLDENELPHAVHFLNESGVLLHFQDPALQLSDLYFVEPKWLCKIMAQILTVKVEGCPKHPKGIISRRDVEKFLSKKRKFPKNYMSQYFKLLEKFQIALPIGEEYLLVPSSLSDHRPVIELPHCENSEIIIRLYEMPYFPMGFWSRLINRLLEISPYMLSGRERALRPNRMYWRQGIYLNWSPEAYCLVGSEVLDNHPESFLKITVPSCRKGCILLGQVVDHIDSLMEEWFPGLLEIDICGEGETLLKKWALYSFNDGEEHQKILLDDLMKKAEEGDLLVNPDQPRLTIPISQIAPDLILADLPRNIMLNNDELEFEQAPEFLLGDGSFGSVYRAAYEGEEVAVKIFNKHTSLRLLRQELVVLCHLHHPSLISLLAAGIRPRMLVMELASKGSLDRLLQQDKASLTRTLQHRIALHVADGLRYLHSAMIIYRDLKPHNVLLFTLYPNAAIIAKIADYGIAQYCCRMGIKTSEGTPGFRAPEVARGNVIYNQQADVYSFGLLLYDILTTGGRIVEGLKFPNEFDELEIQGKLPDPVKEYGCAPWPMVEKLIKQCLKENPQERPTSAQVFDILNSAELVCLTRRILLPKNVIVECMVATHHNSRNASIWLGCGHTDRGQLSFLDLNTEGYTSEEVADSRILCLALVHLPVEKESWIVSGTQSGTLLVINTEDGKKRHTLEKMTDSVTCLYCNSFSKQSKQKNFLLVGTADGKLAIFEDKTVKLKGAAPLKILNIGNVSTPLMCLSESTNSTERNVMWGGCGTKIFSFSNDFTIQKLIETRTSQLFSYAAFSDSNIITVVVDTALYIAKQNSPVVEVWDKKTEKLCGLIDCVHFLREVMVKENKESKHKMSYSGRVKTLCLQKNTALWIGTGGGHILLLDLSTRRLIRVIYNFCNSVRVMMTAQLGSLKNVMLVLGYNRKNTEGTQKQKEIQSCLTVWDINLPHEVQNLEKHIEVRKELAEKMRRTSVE", "experiment": "LRRK2 AlphaScreen desensitised protein substrate assay", "assay_type": "biochemical", "details": "mean pIC50 of multiple test results; stated as threshold", "procedure": "Compounds of formula (I) may be tested for in vitro kinase activity in accordance with the following assays, using the non natural, in vitro, substrates moesin and the Longer Biotin-LRRKtide. Moesin and a shorter version of the peptide were identified as substrates in Jaleel et al. (2007, Biochem J, 405: 307-317).\nb) 3 μl enzyme solution (80 nM purified recombinant 6His-Tev-LRRK2 (1326-2527) in assay buffer: 50 mM Hepes (pH 7.2), 10 mM MgCl2, 150 mM NaCl, 5% glycerol, 0.0025% triton X-100 and 1 mM DTT) is added to certain wells. […] Plates are then incubated for a further 1-2 hours at room temperature (incubation time varies depending upon rate and linearity of reaction with differing enzyme batches). d) 6 μl detection solution (50 nM Streptavidin SureLight® APC (PerkinElmer), 4 nM Eu-W1024 labelled anti-rabbit IgG antibody (PerkinElmer), 1:500 dilution (dilution determined on a batch to batch basis) of Phospho-Ezrin (Thr567)/Radixin (Thr564)/Moesin (Thr558) Polyclonal Antibody (New England Biolabs) and 60 mM EDTA in buffer: 40 mM Hepes (pH 7.2), 150 mM NaCl, 0.03% BSA) is added to each well. Plates are then incubated for a further 2 hours at room temperature before reading on a suitable plate reader (Excitation 330 nm, emission 620 nm (Eu) and 665 nm (APC)). Data is analysed using ActivityBase software (IDBS). […] Data is analysed using ActivityBase software (IDBS). […]", "note": "Some of these results come from one statement about several compounds together."}
{"smiles": "Cl.Cn1cc(-c2cc(C(=O)Nc3cccc(Cl)c3)c(OCc3ccccc3)cc2CN2CCOCC2)cn1", "note": "[Example 50, 2-(benzyloxy)-N-(3-chlorophenyl)-5-(1-methyl-1H-pyrazol-4-yl)-4-(morpholinomethyl)benzamide, Hydrochloride]", "values": [{"measurement": "pIC50 in the LRRK2 alphascreen desensitised protein substrate assay (bounds)", "value": "< 4.6"}]}
